Measured values from PubChem BioAssay AID555 (SRMLSC, 2006).
This is one part of the list. Some of these compounds have results that are not shown, active ones among them.

The molecules below were run on mevalonate kinase [Streptococcus pneumoniae D39] (assay: pneumococcal mevalonate kinase activity blockers – biochemical, PK/LDH-coupled NADH absorbance, primary screen (AID 555)). Settings: purified MK, PK/LDH-coupled NADH absorbance 340 nm; measured here: pilot screen replicates; at 10 µM; stronger effect = higher value.
In the case of `O=C(OC1CN2CCC1CC2)C(CO)(c1ccccc1)c1ccccc1` (stereo unspecified), the inhibition is reported as 0%.
